{
  "source": "patent US20080051454A1",
  "about": "“Compositions and methods for transient receptor potential vanilloid (TRPV) channel mediated treatments” (The Board of Trustees Operating Michigan State University, priority 2006, published 2008)",
  "test_system": "Wistar rats (Con-NS, Con-HS, Cap-NS, Cap-HS)",
  "assay": "Natriuretic, diuretic and depressor effects of i.v. diuretics in control and capsaicin-pretreated rats on normal or high sodium diet",
  "assay_type": "in vivo, rat",
  "conditions": "intravenous",
  "description": "(a) Urine flow rate. (b) Urine sodium excretion. […] (c) Mean arterial pressure. […] Vehicle; trichlormethiazide.\n(a) Urine flow rate. (b) Urine sodium excretion. […] (c) Mean arterial pressure.\n(a) Urine flow rate. (b) Urine sodium excretion. […] (c) Mean arterial pressure. […] Vehicle; amiloride.\nDesign and methods Neonatal Wistar rats were treated with capsaicin or vehicle. Seven-week-old male rats were treated for 2 weeks with: vehicle plus a normal (Con-NS) or high (Con-HS) sodium diet, and capsaicin pretreatment plus a normal (Cap-NS) or high (Cap-HS) sodium diet. Mean arterial pressure (MAP), renal excretory function, and protein expression determined by Western blot were performed.",
  "data": [
    {"smiles": "NS(=O)(=O)c1cc(C(=O)O)c(NCc2ccco2)cc1Cl", "note": "[furosemide]", "values": [
      {"measurement": "urine flow / urine sodium excretion (words)", "value": "significantly increased"},
      {"measurement": "urine flow / urine sodium excretion (words)", "setting": "listed as Furosemide", "value": "increased"}
    ]}
  ]
}
